Results as given in patent US20250127942A1 (MEDICOVESTOR, published 2025).
No constants are given. Whether binding was seen depends on the method and setting. Some binding calls cover weakened binding; strength is not graded here. For some assays here: Sequences can lack the tags named with a protein.

Key:
[1] = molecular target: T1, recombinant Sp17 protein (human) (UniProt Q15506); assay: western blot of Sp17 protein
T1 sequence (looked up): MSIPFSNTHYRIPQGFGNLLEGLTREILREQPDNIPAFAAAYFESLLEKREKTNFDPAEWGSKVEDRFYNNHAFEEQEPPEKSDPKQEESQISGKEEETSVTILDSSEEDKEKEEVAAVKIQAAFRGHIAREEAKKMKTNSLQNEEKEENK

[2] = molecular target: T1, recombinant Sp17 protein (human); assay: western blot of recombinant Sp17 protein
[3] = molecular target: T1, recombinant Sp17 protein (human); assay: western blot of Sp17 protein (lanes 1-3) after SDS-PAGE, detected with chAB2
[4] = molecular target: T2, recombinant 6His-Sp17 protein (human, UniProt Q15506 1-151, limits assumed); assay: surface plasmon resonance (Biacore T200), 6His-Sp17 at 300, 100, 50, 25, 12.5 and 6.25 nM according to the legend
T2 construct: The species is not restated for this recombinant protein; not shown: 6His tag
T2 sequence (looked up): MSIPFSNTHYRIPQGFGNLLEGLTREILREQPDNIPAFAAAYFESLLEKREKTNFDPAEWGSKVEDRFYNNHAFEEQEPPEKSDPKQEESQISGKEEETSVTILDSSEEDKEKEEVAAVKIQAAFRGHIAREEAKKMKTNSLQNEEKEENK

[5] = molecular target: T1, recombinant Sp17 protein (human); assay: western blot
[6] = molecular target: T1, recombinant Sp17 protein (human); assay: western blot of Sp17 protein and a tumor cell lysate
[7] = molecular target: T1, recombinant Sp17 protein (human); assay: western blot of Sp17 protein (lane 1) after SDS-PAGE, detected with SP17-AB2
[8] = molecular target: T1, recombinant Sp17 protein (human); assay: ELISA of phage display clones

B1: mouse-human chimeric anti-Sp17 IgG2a/kappa monoclonal antibody chAB2 (antibody, V domains shown)
VH: QVQLQQSGAEVKKPGSSVKVSCKASGGTFSSYAISWVRQAPGQGLEWMGRIIPILGIANYAQKFQGRVTITADKSTSTAYMELSSLRSEDTAVYYCARPSEEVVAAYGAFDIWGQGTTVTVSS
VL: EIVLTQSPLSLPVRPGEPASISCRASQSLLRSDGFNYLDWYLQKPGQSPQLLVYLGSNRASGVPDRFSGSGSGTDFTLKISRVEAEDVGVYYCMQAVQTPYIFGQGTKLEIK
notes: also called anti-Sp17 antibody chAB2; chimeric monoclonal antibody (chAB2); not shown: mouse IgG2a heavy chain constant region; mouse kappa light chain constant region
- binding [1]: binds
- binding [2]: binds
- binding [3]: binds
- binding [4]: binds

B2: human anti-Sp17 IgG4/kappa monoclonal antibody SP17-AB2 (antibody, V domains shown)
VH: QVQLQQSGAEVKKPGSSVKVSCKASGGTFSSYAISWVRQAPGQGLEWMGRIIPILGIANYAQKFQGRVTITADKSTSTAYMELSSLRSEDTAVYYCARPSEEVVAAYGAFDIWGQGTTVTVSS
VL: EIVLTQSPLSLPVRPGEPASISCRASQSLLRSDGFNYLDWYLQKPGQSPQLLVYLGSNRASGVPDRFSGSGSGTDFTLKISRVEAEDVGVYYCMQAVQTPYIFGQGTKLEIKR
- binding [5]: binds
- binding [6]: binds
- binding [7]: binds

B3: best-performing anti-Sp17 Fab clone from the human Fab phage display library (Fab, V domains shown)
VH: QVQLQQSGAEVKKPGSSVKVSCKASGGTFSSYAISWVRQAPGQGLEWMGRIIPILGIANYAQKFQGRVTITADKSTSTAYMELSSLRSEDTAVYYCARPSEEVVAAYGAFDIWGQGTTVTVSS
VL: EIVLTQSPLSLPVRPGEPASISCRASQSLLRSDGFNYLDWYLQKPGQSPQLLVYLGSNRASGVPDRFSGSGSGTDFTLKISRVEAEDVGVYYCMQAVQTPYIFGQGTKLEIK
- binding [8]: binds
